Source: the supplement of paper PMC6078165
The reference is the same well before dosing, and untreated signal decays as well.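 Fibroblast labels name human fibroblasts: mostly primary ones from tissues such as uterus (C12385, HUF), lung (H6013), bone (Hs27A), adrenal (HADF) and skin (WS1), plus mammary HMF and breast cancer-associated Hs343T. The cancer cells are basal-like or mesenchymal-like triple-negative breast cancer lines. The paper calls a changed response a hit when it shifts by more than 3x the replicate standard deviation. The tissue of the other fibroblasts is not given here.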

Test system: MDAMB231
Assay: relative JC-1 red fluorescence (viability) vs pre-drug, coculture with fibroblast (fraction); higher = more viable cancer cells
Experimental: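 JC-1 labelled TNBC cells cocultured 1:1 (1,500 cells each) with CellTrace Violet stained primary or stromal fibroblasts in 384-well plates in FluoroBrite medium, treated with one of 42 anticancer drugs at 0.1, 1, 10 or 100 uM. JC-1 red fluorescence (mitochondrial integrity in cancer cells only) was read by plate reader every 8 h for 72 h. Values are normalised to each well's pre-drug value. The stock of one drug was tenfold lower, so its dose labels may be too high.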

CC/C(=C(\c1ccccc1)c1ccc(OCCN(C)C)cc1)c1ccccc1 [Tamoxifen]
relative JC-1 red fluorescence
Details	8 h	16 h	24 h	32 h	40 h	48 h	56 h	64 h	72 h
0.1 µM, coculture fibroblast: C12385	0.7856	0.703	0.68	0.605	0.551	0.527	0.481	0.4768	0.4583
0.1 µM, coculture fibroblast: H6013	0.9104	0.8	0.753	0.736	0.687	0.661	0.648	0.636	0.598
0.1 µM, coculture fibroblast: H6019	0.755	0.664	0.64	0.592	0.537	0.517	0.478	0.471	0.431
0.1 µM, coculture fibroblast: H6076	0.86626	0.772	0.735	0.719	0.696	0.677	0.66	0.653	0.651
0.1 µM, coculture fibroblast: H6231	0.9297	0.8415	0.75057	0.715	0.664	0.632	0.588	0.563	0.544
0.1 µM, coculture fibroblast: HADF	0.8862	0.8136	0.762	0.731	0.679	0.639	0.618	0.596	0.546
0.1 µM, coculture fibroblast: HCFa	0.8856	0.795	0.7504	0.709	0.655	0.598	0.5699	0.532	0.4834
0.1 µM, coculture fibroblast: HCPF	0.874	0.793	0.724	0.719	0.679	0.643	0.609	0.587	0.569
0.1 µM, coculture fibroblast: HHSteC	0.9212	0.861	0.813	0.773	0.722	0.7	0.661	0.631	0.596
0.1 µM, coculture fibroblast: HMF	0.8911	0.783	0.682	0.642	0.579	0.544	0.4961	0.4709	0.4428
0.1 µM, coculture fibroblast: HPFa	0.9529	0.891	0.829	0.772	0.741	0.684	0.622	0.578	0.523
0.1 µM, coculture fibroblast: HUF	0.873	0.771	0.755	0.644	0.582	0.547	0.497	0.485	0.452
0.1 µM, coculture fibroblast: Hs5	0.8671	0.771	0.728	0.682	0.6387	0.5908	0.544	0.518	0.487
0.1 µM, coculture fibroblast: Hs27A	0.86709	0.8063	0.75514	0.7349	0.678	0.618	0.613	0.587	0.53
0.1 µM, coculture fibroblast: Hs343T	0.902	0.797	0.717	0.684	0.646	0.607	0.557	0.54	0.521
0.1 µM, coculture fibroblast: WS1	0.756	0.649	0.598	0.536	0.478	0.449	0.391	0.378	0.355
1 µM, coculture fibroblast: C12385	0.7847	0.7385	0.741	0.6842	0.604	0.5934	0.5535	0.5557	0.538
1 µM, coculture fibroblast: H6013	0.908	0.826	0.79	0.76	0.718	0.696	0.689	0.657	0.61
1 µM, coculture fibroblast: H6019	0.773	0.753	0.728	0.689	0.648	0.617	0.564	0.549	0.506
1 µM, coculture fibroblast: H6076	0.865	0.799	0.78175	0.7621	0.721	0.685	0.665	0.647	0.637
1 µM, coculture fibroblast: H6231	0.906	0.833	0.793	0.763	0.715	0.687	0.652	0.636	0.611
1 µM, coculture fibroblast: HADF	0.8804	0.828	0.792	0.7521	0.7235	0.6759	0.652	0.6368	0.593
1 µM, coculture fibroblast: HCFa	0.915	0.8585	0.831	0.81	0.752	0.709	0.676	0.65	0.599
1 µM, coculture fibroblast: HCPF	0.888	0.791	0.771	0.752	0.704	0.668	0.643	0.613	0.594
1 µM, coculture fibroblast: HHSteC	0.9278	0.8954	0.8625	0.8374	0.8105	0.7807	0.73849	0.71114	0.6712
1 µM, coculture fibroblast: HMF	0.877	0.795	0.7777	0.7468	0.701	0.662	0.638	0.614	0.594
1 µM, coculture fibroblast: HPFa	0.967	0.91825	0.89	0.8375	0.8155	0.7816	0.722	0.699	0.64
1 µM, coculture fibroblast: HUF	0.882	0.8	0.821	0.708	0.641	0.612	0.559	0.543	0.521
1 µM, coculture fibroblast: Hs5	0.8981	0.85	0.799	0.767	0.729	0.674	0.637	0.606	0.577
1 µM, coculture fibroblast: Hs27A	0.8985	0.8459	0.805	0.776	0.721	0.654	0.649	0.63	0.573
1 µM, coculture fibroblast: Hs343T	0.899	0.795	0.756	0.728	0.685	0.639	0.59	0.568	0.538
1 µM, coculture fibroblast: WS1	0.768	0.713	0.689	0.608	0.557	0.516	0.469	0.468	0.444
10 µM, coculture fibroblast: C12385	0.737	0.789	0.638	0.778	0.768	0.755	0.746	0.75	0.751
10 µM, coculture fibroblast: H6013	0.952	0.935	0.93	0.938	0.9162	0.87	0.908	0.9007	0.8813
10 µM, coculture fibroblast: H6019	0.755	0.746	0.666	0.721	0.69	0.669	0.652	0.616	0.591
10 µM, coculture fibroblast: H6076	0.885	0.847	0.815	0.873	0.947	0.895	0.905	0.8	0.891
10 µM, coculture fibroblast: H6231	0.839	0.812	0.872	0.895	0.836	0.917	0.862	0.825	0.902
10 µM, coculture fibroblast: HADF	0.919	0.9188	0.8982	0.896	0.881	0.815	0.862	0.869	0.831
10 µM, coculture fibroblast: HCFa	0.945	0.937	0.943	0.964	0.967	0.922	0.944	0.927	0.908
10 µM, coculture fibroblast: HCPF	0.766	0.804	0.788	0.837	0.787	0.853	0.765	0.862	0.858
10 µM, coculture fibroblast: HHSteC	0.9546	0.968	0.974	0.967	0.96	0.939	0.939	0.955	0.9555
10 µM, coculture fibroblast: HMF	0.754	0.835	0.835	0.841	0.853	0.757	0.855	0.9812	0.969
10 µM, coculture fibroblast: HPFa	0.976	0.9845	0.9584	0.967	0.981	0.9539	0.9553	0.9564	0.941
10 µM, coculture fibroblast: HUF	0.891	0.861	0.83	0.795	0.758	0.743	0.702	0.687	0.648
10 µM, coculture fibroblast: Hs5	0.859	0.797	0.704	0.799	0.9963	0.97	0.938	0.929	0.922
10 µM, coculture fibroblast: Hs27A	0.9458	0.946	0.9462	0.9496	0.927	0.803	0.886	0.884	0.841
10 µM, coculture fibroblast: Hs343T	0.899	0.739	0.907	0.918	0.813	0.731	0.862	0.958	0.946
10 µM, coculture fibroblast: WS1	0.765	0.776	0.684	0.78	0.796	0.788	0.781	0.782	0.758
